Results are given in words; binding and its absence hold for the method and conditions named. Binding seen in cells or lysates may run through a third protein. Some results given as binding are weak or reduced against the parent protein; the word gives no strength. Where a sequence is shown, tags or fusion partners need not be part of it.
Columns and labels:
[1] = target: T1, PTTG1-binding factor (PBF/PTTG1IP) with a hemagglutinin (HA) tag, wild type (UniProt P53801); experiment: proximity ligation; Duolink in situ PLA of PBF-HA (WT or Y174A) and myc-CTTN in transfected MCF-7, MDA-MB-231 and TPC-1 cells; also in cells halted during scratch wound assays
T1 sequence: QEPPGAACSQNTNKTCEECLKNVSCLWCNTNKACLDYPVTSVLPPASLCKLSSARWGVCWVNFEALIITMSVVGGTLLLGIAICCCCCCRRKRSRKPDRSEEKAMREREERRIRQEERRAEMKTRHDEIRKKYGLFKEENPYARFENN

The chains behind the UniProt entries cited, without tags or fusion partners. Where a name states a change or a piece, a line headed by the entry shows the natural chain unless it says otherwise.
UniProt Q14247, whole entry: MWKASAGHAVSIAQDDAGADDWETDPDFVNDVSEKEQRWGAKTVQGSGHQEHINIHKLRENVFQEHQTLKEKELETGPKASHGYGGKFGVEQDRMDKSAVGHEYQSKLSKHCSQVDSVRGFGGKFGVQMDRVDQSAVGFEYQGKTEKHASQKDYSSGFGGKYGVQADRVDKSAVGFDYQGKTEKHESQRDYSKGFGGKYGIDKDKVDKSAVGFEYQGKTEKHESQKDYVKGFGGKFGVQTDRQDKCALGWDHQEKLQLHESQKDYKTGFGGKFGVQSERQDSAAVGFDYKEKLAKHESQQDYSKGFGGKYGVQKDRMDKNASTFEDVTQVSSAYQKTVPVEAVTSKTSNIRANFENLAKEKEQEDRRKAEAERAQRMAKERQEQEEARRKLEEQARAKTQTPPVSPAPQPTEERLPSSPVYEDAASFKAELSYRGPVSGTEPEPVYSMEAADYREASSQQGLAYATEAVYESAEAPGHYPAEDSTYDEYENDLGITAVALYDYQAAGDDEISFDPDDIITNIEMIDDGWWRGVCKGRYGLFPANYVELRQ

[2] = target: T1, PTTG1-binding factor (PBF/PTTG1IP) with a hemagglutinin (HA) tag, wild type; experiment: co-IP; myc-tagged CTTN and HA-tagged PBF (WT or Y174A) transfected in MCF-7 and HeLa cells; in HeLa also after 50 nM dasatinib or vehicle

Question: “human Myc-CTTN (cortactin) (from UniProt Q14247 1-550)” was tested. Which binding [1] did it give?
Answer: The binding was “binds”.

Question: What about the binding [2] of the same substance?
Answer: The binding was “binds”.

— paper PMC5155689, “Pro-invasive Effect of Proto-oncogene PBF Is Modulated by an Interaction with Cortactin” (The Journal of Clinical Endocrinology and Metabolism, 2016)
